Experimental data from article doi:10.1101/2020.07.07.191437.
No constants are given. Whether binding was seen depends on the method and setting. In cells and extracts the contact can be indirect.

Chains of the proteins cited; added tags and fusions are not shown. Lines headed by an entry give the natural chain unless they say otherwise; changes in a name come on top.
UniProt Q92540: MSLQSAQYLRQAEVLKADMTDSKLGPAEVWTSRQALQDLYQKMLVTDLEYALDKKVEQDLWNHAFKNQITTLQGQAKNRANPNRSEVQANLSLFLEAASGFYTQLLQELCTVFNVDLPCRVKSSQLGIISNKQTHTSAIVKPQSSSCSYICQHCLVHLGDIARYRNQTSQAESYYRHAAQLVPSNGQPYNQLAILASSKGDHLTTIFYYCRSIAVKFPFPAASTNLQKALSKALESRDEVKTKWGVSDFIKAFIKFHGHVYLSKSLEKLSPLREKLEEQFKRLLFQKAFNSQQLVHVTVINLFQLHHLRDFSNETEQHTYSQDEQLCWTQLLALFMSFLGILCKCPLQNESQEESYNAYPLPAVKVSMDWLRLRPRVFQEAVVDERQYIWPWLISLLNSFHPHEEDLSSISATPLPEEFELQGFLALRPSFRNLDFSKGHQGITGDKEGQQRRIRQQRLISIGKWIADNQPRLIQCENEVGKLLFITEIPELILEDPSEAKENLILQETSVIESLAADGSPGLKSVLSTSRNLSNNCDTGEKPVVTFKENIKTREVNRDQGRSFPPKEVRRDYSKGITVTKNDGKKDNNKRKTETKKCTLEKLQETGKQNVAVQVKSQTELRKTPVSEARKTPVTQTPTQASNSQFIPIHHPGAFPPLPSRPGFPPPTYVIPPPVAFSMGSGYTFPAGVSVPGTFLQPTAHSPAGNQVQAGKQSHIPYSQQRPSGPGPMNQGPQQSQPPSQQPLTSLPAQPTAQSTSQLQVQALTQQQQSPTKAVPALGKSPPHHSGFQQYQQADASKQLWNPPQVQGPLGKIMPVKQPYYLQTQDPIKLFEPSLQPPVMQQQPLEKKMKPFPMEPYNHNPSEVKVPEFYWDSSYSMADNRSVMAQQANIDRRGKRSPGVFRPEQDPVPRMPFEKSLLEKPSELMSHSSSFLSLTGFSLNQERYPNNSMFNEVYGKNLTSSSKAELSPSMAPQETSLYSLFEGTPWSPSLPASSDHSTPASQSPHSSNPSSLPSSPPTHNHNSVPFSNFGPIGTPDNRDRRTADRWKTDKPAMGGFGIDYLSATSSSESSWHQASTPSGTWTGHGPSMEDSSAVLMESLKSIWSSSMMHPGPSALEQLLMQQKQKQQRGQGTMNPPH

Experiments:
[1] = molecular target: FLAG-tagged SMG7 1-633 14-3-3^mut (human) (UniProt Q92540); assay: co-IP
[2] = molecular target: FLAG-tagged SMG7 14-3-3^mut (full length) (human) (UniProt Q92540); assay: co-IP

binding [1]: no binding
binding [2]: no binding
B1: UPF1 (protein, UniProt Q92900 1-1129)
chain: MSVEAYGPSSQTLTFLDTEEAELLGADTQGSEFEFTDFTLPSQTQTPPGGPGGPGGGGAGGPGGAGAGAAAGQLDAQVGPEGILQNGAVDDSVAKTSQLLAELNFEEDEEDTYYTKDLPIHACSYCGIHDPACVVYCNTSKKWFCNGRGNTSGSHIVNHLVRAKCKEVTLHKDGPLGETVLECYNCGCRNVFLLGFIPAKADSVVVLLCRQPCASQSSLKDINWDSSQWQPLIQDRCFLSWLVKIPSEQEQLRARQITAQQINKLEELWKENPSATLEDLEKPGVDEEPQHVLLRYEDAYQYQNIFGPLVKLEADYDKKLKESQTQDNITVRWDLGLNKKRIAYFTLPKTDSGNEDLVIIWLRDMRLMQGDEICLRYKGDLAPLWKGIGHVIKVPDNYGDEIAIELRSSVGAPVEVTHNFQVDFVWKSTSFDRMQSALKTFAVDETSVSGYIYHKLLGHEVEDVIIKCQLPKRFTAQGLPDLNHSQVYAVKTVLQRPLSLIQGPPGTGKTVTSATIVYHLARQGNGPVLVCAPSNIAVDQLTEKIHQTGLKVVRLCAKSREAIDSPVSFLALHNQIRNMDSMPELQKLQQLKDETGELSSADEKRYRALKRTAERELLMNADVICCTCVGAGDPRLAKMQFRSILIDESTQATEPECMVPVVLGAKQLILVGDHCQLGPVVMCKKAAKAGLSQSLFERLVVLGIRPIRLQVQYRMHPALSAFPSNIFYEGSLQNGVTAADRVKKGFDFQWPQPDKPMFFYVTQGQEEIASSGTSYLNRTEAANVEKITTKLLKAGAKPDQIGIITPYEGQRSYLVQYMQFSGSLHTKLYQEVEIASVDAFQGREKDFIILSCVRANEHQGIGFLNDPRRLNVALTRARYGVIIVGNPKALSKQPLWNHLLNYYKEQKVLVEGPLNNLRESLMQFSKPRKLVNTINPGARFMTTAMYDAREAIIPGSVYDRSSQGRPSSMYFQTHDQIGMISAGPSHVAAMNIPIPFNLVMPPMPPPGYFGQANGPAAGRGTPKGKTGRGGRQKNRFGLPGPSQTNLPNSQASQDVASQPFSQGALTQGYISMSQPSQMSQPGLSQPELSQDSYLGDEFKSQIDVALSQDSTYQGERAYQHGGVTGLSQY
